From PubChem BioAssay AID2685 (National Center for Advancing Translational Sciences (NCATS), 2010)
Out of some 320,000 compounds screened, about 2,100 (0.66%) were called active. This list was built around the results that the source calls inconclusive (neither active nor inactive); the mix of calls is not that of the screen. Calls follow the shape of the dose curve; as a rule, active = well fitted inhibition curve with a large enough effect in the signal ratio, with a control signal flat (not every such curve was filed as active); inconclusive = small, poorly fitted or top-dose-only effect, or effect the other way, or a change in a side signal; inactive = flat fitted curve, though single readings scatter; the % refers to the signal ratio. A potency beside an inconclusive call is a rough fit, not a confirmed value.

Test: qHTS Assay for Lipid Storage Modulators in Drosophila S3 Cells
Conditions: BODIPY lipid droplet fluorescence, 18-24 h, cells fed with added oleic acid; lipid storage change, negative = inhibition: at 46.1 µM (top of the series) unless noted
How it was run: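 Drosophila S3 cells got compounds at several concentrations plus oleic acid (400 uM solution). Laser-scanning cytometry with 488 nm excitation read lipid droplets at 500-530 nm and cells at 575-640 nm. Percent activity was relative to 20 uM Triacsin C.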
% is scaled to controls: 0 for no effect and ±100 for the full control effect; potency is read from the fitted curve at half-maximal effect.

Compound	Potency	lipid storage change, negative = inhibition
Cc1ccc(NC(=O)CSc2nnc(C3CC3)n2C)cc1S(=O)(=O)N1CCCCC1	inconclusive: 4110 nM [falling, single point]	–
COc1ccc(NC(=O)Cc2nnc(SCC(=O)NC3CCCC3)n2C)cc1	–	inconclusive: -3.05%
CCC(=O)Nc1cccc(-c2cn3ccsc3n2)c1	–	inconclusive: 229%
CN(C)S(=O)(=O)n1cnc([C@@H]2[C@@H]3C(=O)OC[C@@H]3C[C@]23N=CN(Cc2ccccc2)C3=O)c1	–	inconclusive: 15%
CCn1c(C)nc2cc(C(=O)NNS(=O)(=O)c3ccc(C)cc3C)ccc21	inconclusive: 1460 nM [activator, full curve]	–
O=C(COC(=O)CCc1nc2ccccc2s1)Nc1ncc(Cl)cc1Cl	–	inconclusive: 23.6%
N=c1c2c(-c3ccccc3)c(-c3ccccc3)n(Cc3ccccc3)c2ncn1CCCO	–	inconclusive: -65.6%
Cc1csc2nnc(N)n12	–	inconclusive: 0.816%
O=C(CN1CCc2ccccc21)Nc1ccc2c(c1)OCO2	inconclusive: 1460 nM [activator, partial curve]	–
Cc1cccc(NC(=O)CS(=O)CC(=O)Nc2cnc3ccccc3c2)c1C (centres undefined)	inconclusive: 580 nM [activator, partial curve]	–
CC1CC(=O)N(CC(=O)NCc2ccc3c(c2)OCO3)c2ccccc2S1 (centres undefined)	–	inconclusive: 68.6%
Nc1cccc(/C=C/c2ccncc2)c1	–	inconclusive: 17%
Cn1c(=O)[nH]c(=O)c2c1nc(CN1CCN(c3cccc(Cl)c3)CC1)n2Cc1ccccc1Cl	–	inconclusive: 26.5%
Cn1nc(C(=O)NNC(=O)c2ccc(Cl)c(S(N)(=O)=O)c2)c2ccccc2c1=O	–	inconclusive: 18.6%
CC(C)CCNC(=O)COc1ccc2c3c(c(=O)oc2c1)CCC3	–	inconclusive: 6.03%
O=C(O)COc1ccc(C(=O)Cc2ccc3c(c2)OCCCO3)c(O)c1	–	inconclusive: 6.99%
Cc1nc(SCc2cccc(Oc3ccccc3)c2)n[nH]1	–	inconclusive: 25.6%
O=C(NC1CCCc2c1cnn2-c1cc(F)cc(F)c1)c1ccncc1 (centres undefined)	–	inconclusive: -100%
CCn1cnc2c(NCCc3cccnc3)nc(C#N)nc21	inconclusive: 1300 nM [activator, single point]	–
COc1ccc(C(CC(=O)O)N2Cc3ccccc3C2=O)cc1 (centres undefined)	inconclusive: 206 nM [falling, full curve, poor fit]	–
CCOc1ccccc1NC(=S)N1CCCCCC1	inconclusive: 29100 nM [activator, single point]	–
O=C(c1cccc(S(=O)(=O)Nc2ccccc2Cl)c1)N1CCN(c2ccccc2O)CC1	inconclusive: 58 nM [falling, full curve, poor fit]	–
CN(C1CCCCC1)S(=O)(=O)c1cn(C)c(=O)n(C)c1=O	inconclusive: 58 nM [falling, full curve, poor fit]	–
CCOCCn1c(N2CCN(c3ccccc3)CC2)nc2c1c(=O)n(C)c(=O)n2C	inconclusive: 461 nM [rising, full curve]	–
O=S(=O)(Cc1ccccc1)N1CCN(Cc2ccc(Br)cc2)CC1	–	inconclusive: 45%

Compound	Potency	lipid storage change, negative = inhibition
NC(=O)c1nsc(C(=O)N(Cc2cccnc2)C(C(=O)NC2CCCCC2)c2ccc(F)cc2)c1N (centres undefined)	inconclusive: 29100 nM [activator, single point]	–
COc1cc(-c2nnc(NC(=O)CS(=O)(=O)c3ccc(C)cc3)o2)cc(OC)c1OC	–	inconclusive: -4.8%
Cc1cccc2c(C(=O)N3CCN(C(=O)c4ccco4)CC3)cc(-c3cccc(Br)c3)nc12	inconclusive: 731 nM [falling, full curve]	–
Cc1cc(NC(=O)CSc2nc3c(C)ccc(C)c3cc2C#N)no1	–	inconclusive: 33.5%
COc1ccc(NC(=O)COC(=O)c2cc(=O)c3ccccc3o2)cc1OC	–	inconclusive: -0.103%
NC(=S)Nc1ccc2cn[nH]c2c1	–	inconclusive: -12.5%
CCc1cc(C(=O)O)c(NC(=O)C(c2ccccc2)c2ccccc2)s1	inconclusive: 1460 nM [falling, full curve]	–
O=C(Nc1ccccc1C(F)(F)F)N1CCCC1c1cccnc1 (centres undefined)	–	inconclusive: -5.9%
CC(Sc1nnc(Nc2ccccc2F)s1)C(=O)NC1CC1 (centres undefined)	inconclusive: 3660 nM [falling, full curve]	–
O=C(C1=C[C@H](c2ccc(Br)cc2)C[C@H](OCCCCO)O1)N1CCN(Cc2ccc3c(c2)OCO3)CC1	–	inconclusive: -56%
CCOc1ccc(S(=O)(=O)Nc2ccc(C(=O)NCC(c3ccco3)N(C)C)cc2)cc1 (centres undefined)	–	inconclusive: -100%
Cc1ccc(NC(=O)CSc2n[nH]c(-c3ccncc3)n2)c(C)c1	inconclusive: 184 nM [falling, partial curve, poor fit]	–
CCCCn1c(N)c(N(CCOC)C(=O)COC(=O)Cc2cccc(OC)c2)c(=O)[nH]c1=O	–	inconclusive
O=C(Cc1cn2ccsc2n1)Nc1nc2c(s1)CN(Cc1ccccc1)CC2	–	inconclusive: -4.59%
O=C(Nc1ccccc1N1CCOCC1)c1ccc(Cl)c(S(=O)(=O)NCc2ccco2)c1	–	inconclusive: 5.04%
O=C(CC1(O)C(=O)N(C/C=C/c2ccccc2)c2ccccc21)c1ccccn1 (centres undefined)	–	inconclusive: 32.1%
O=C(CCCOc1ccc(Br)cc1)Nc1ccc(S(=O)(=O)N2CCOCC2)cc1	–	inconclusive: -3.79%
Cc1cc(C)nc(Nc2ccc(O)cc2)n1	–	inconclusive: 10.7%
O=C(NNC(=O)c1ccccc1O)c1ccc(NS(=O)(=O)c2ccc(F)c(F)c2)cc1	–	inactive
O=C(OCC(=O)N1CCN(S(=O)(=O)c2ccc(Cl)cc2)CC1)C1CC1	inconclusive: 3260 nM [falling, partial curve]	–
CN(C)c1ccc2c(=O)[nH][nH]c(=O)c2c1	–	inconclusive: -0.662%
CCCCN1C(=O)c2ccc(C(=O)NCCN3C(=O)S/C(=C\c4cccnc4)C3=O)cc2C1=O	–	inconclusive: -7.06%
O=C1CN(C(=O)COc2ccccc2Cl)c2ccccc2N1	–	inconclusive: 16.3%
O=c1cc(-c2ccccc2)oc2ccc(O)cc12	–	inconclusive: -2.24%
Cc1ccc(S(=O)(=O)N(CCC(=O)NCc2ccccc2F)c2ccccc2)cc1	inconclusive: 29100 nM [falling, partial curve, poor fit]	–

Compound	Potency	lipid storage change, negative = inhibition
COc1ccc(-n2nc(C(=O)NCC(=O)N3CCC(C(N)=O)CC3)c3ccccc3c2=O)cc1OC	inconclusive: 411 nM [falling, full curve, poor fit]	–
Cc1ccc(C)c(N(C(=O)Cc2cccs2)C(C(=O)NC2CCCC2)c2ccc(C)o2)c1 (centres undefined)	–	inconclusive: 26%
Cc1ccccc1-c1cc2nc(-c3ccc([N+](=O)[O-])cc3)cc(=O)n2[nH]1	–	inconclusive: -18.9%
CC[n+]1c(C)sc2c(C)cc(C)cc21	–	inconclusive: 23%
Cc1ccc(CCC(=O)Nc2ccc(C)c(C)c2)o1	inconclusive: 29100 nM [rising, single point]	–
CC1Oc2ccccc2N(CC(=O)N(Cc2ccccc2)Cc2ccccn2)C1=O (centres undefined)	inconclusive: 146 nM [falling, full curve, poor fit]	–
CCN(CC)CCCNC(=O)CC1Oc2ccc(C)cc2NC1=O (centres undefined)	–	inconclusive: 20.1%
Fc1ccc(OCc2nc3ccccc3s2)cc1	–	inconclusive: 37.6%
Cc1ccccc1OCc1nc(-c2ccc(NC(=O)c3cccs3)cc2)no1	–	inconclusive: 19.4%
O=C(NCc1ccccc1)NS(=O)(=O)c1ccccc1Cl	–	inconclusive: -23.1%
CN(C)c1ccc(/C=N/NC(=O)c2cnc3ccccc3c2)cc1	–	inconclusive: 24.3%
CCOc1ccccc1NC(=O)CN(c1ccc(Cl)cc1)S(C)(=O)=O	–	inconclusive: -19.3%
CCCc1cc(C(=O)N2CCN(c3ccc(C(F)(F)F)cn3)CC2)sc1C	–	inconclusive: 58.5%
O=C(Nc1ccccc1F)C1CCCN(S(=O)(=O)c2cccc3cccnc23)C1 (centres undefined)	inconclusive: 461 nM [activator, partial curve, poor fit]	–
CCN(CC(=O)Nc1ccc(NC(C)=O)cc1)C(=O)C12CC3CC(CC(Cl)(C3)C1)C2	–	inconclusive: -44.7%
COc1cc(-c2cc(C(=O)N(C)Cc3ccccc3)c3ccccc3n2)cc(OC)c1OC	inconclusive: 25900 nM [falling, single point]	–
CS(=O)(=O)Nc1cccc(C2=NN(S(=O)(=O)c3ccccc3)C(c3ccco3)C2)c1 (centres undefined)	–	inactive
O=C(Cc1ccc(-n2c(=S)[nH]c3ccccc3c2=O)cc1)N1CCN(c2ccccc2)CC1	inconclusive: 25900 nM [rising, partial curve, poor fit]	–
CC1Cc2ccccc2N1C(=O)COC(=O)CSc1ccc(F)cc1 (centres undefined)	–	inconclusive
Cc1cc(C)nc(SCc2ccc3nonc3c2)n1	–	inconclusive: -12.6%
C#CCOCCOCCOCCNc1nc(N2CCN(C(=O)CCCCCCCCCCNC(=O)Cn3cc(CCCCCN)nn3)CC2)nc(N2CCN(C(=O)CCCCCCCCCCNC(=O)Cn3cc(C[C@@H](C)O)nn3)CC2)n1	–	inconclusive: -17%
CC(=O)N[C@@H](Cc1c[nH]c2ccccc12)C(=O)OCC(=O)Nc1ccc(S(=O)(=O)N(C)C)cc1	–	inconclusive: -11.6%
O=C(N/N=C/c1ccsc1)c1ccc2c(c1)OCO2	–	inactive
CCCCCCCNC(=O)CN1C(=O)CSc2ccc(S(=O)(=O)N3CCOCC3)cc21	–	inconclusive: 25.1%

Three structures out of the list, sorted by length of the SMILES, rising.
Compound	Potency	lipid storage change, negative = inhibition
CCN(CC)CCCNC(=O)CC1Oc2ccc(C)cc2NC1=O (centres undefined)	–	inconclusive: 20.1%
Cc1ccccc1OCc1nc(-c2ccc(NC(=O)c3cccs3)cc2)no1	–	inconclusive: 19.4%
COc1ccc(-n2nc(C(=O)NCC(=O)N3CCC(C(N)=O)CC3)c3ccccc3c2=O)cc1OC	inconclusive: 411 nM [falling, full curve, poor fit]	–
